In the supplement of paper PMC12823440, “Inhibitors supercharge kinase turnover through native proteolytic circuits” (Nature, 2025):
Some of the results follow. Hit calls seldom repeat between salt and free forms of one compound.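 In K562 cells expressing nanoluciferase-fused kinases, luminescence was recorded at 4 h intervals between 2 and 18 h, normalized as percent of control with DMSO at 100% and a positive control at 0%. A significant (2 sigma) signal drop marks a time point as decreased. The authors' rule for a hit is not shown and takes in more than the number of time points.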

The chains behind the UniProt entries cited, without tags or fusion partners. Where a name states a change or a piece, a line headed by the entry shows the natural chain unless it says otherwise.
UniProt P06239: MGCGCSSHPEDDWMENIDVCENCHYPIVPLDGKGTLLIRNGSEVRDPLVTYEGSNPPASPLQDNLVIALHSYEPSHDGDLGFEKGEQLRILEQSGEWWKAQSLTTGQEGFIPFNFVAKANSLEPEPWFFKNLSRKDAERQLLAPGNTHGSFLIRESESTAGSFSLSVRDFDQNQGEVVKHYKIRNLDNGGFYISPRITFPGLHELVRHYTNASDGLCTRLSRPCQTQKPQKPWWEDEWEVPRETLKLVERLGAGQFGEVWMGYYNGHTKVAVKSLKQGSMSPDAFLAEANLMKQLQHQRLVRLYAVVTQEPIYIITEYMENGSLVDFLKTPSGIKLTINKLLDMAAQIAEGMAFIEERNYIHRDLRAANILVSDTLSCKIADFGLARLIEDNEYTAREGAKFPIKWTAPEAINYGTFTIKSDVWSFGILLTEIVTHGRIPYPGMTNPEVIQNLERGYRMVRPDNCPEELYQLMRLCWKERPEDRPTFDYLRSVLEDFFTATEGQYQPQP

target: LCK (UniProt P06239); assay: number of time points (of 5) at which kinase-Nluc abundance scored as decreased, DMSO-normalised (count); higher = more persistent destabilization; details: K562; 2-18 h

**Q.** O=C1NC(=O)C(=Cc2ccc(-c3ccc(F)cc3)o2)S1 (stereo in doubt) (10 µM) was tested. Which “number of time points” value did it give?
**A.** 0

**Q.** How did the “number of time points” value turn out when CCOc1cc(C(=O)N2CCC(N3CCN(C)CC3)CC2)ccc1Nc1ncc2c(n1)N(C1CCCC1)c1ccccc1C(=O)N2C (10 µM) was run?
**A.** 0

**Q.** Which “number of time points” value does the source give for OC(COc1ccc(C(F)(F)F)cc1)CN(Cc1ccccc1)Cc1ccccc1 (configuration not stated) (2.5 µM) here?
**A.** 0

**Q.** Which “number of time points” value does the source give for C[C@@H]1C(=O)O[C@H](C)[C@H]1C[C@@H](O)[C@](C)(O)[C@H]1CC[C@@]2(O)C3=CC(=O)[C@@H]4C[C@@H](O)[C@@H](O)C[C@]4(C)[C@H]3CC[C@]12C [Cyasterone] (10 µM) here?
**A.** 0

**Q.** Which “number of time points” value does the source give for Cc1c(CN2CCN(C(=O)[C@H](C)O)CC2)sc2c(N3CCOCC3)nc(-c3cnc(N)nc3)nc12 [Apitolisib] (10 µM) here?
**A.** 0

**Q.** How did the “number of time points” value turn out when CC(C)(C)NC(=O)c1cncn1C1CCN(c2ccc(-c3nnc(C(F)(F)F)o3)cn2)CC1 (10 µM) was run?
**A.** 0

**Q.** How did the “number of time points” value turn out when NCc1ccc(Nc2ncc(F)c(Nc3ccccc3)n2)cc1 (10 µM) was run?
**A.** 0

**Q.** How did the “number of time points” value turn out when COC1(c2sc3c(N4CCOCC4)nc(-c4cnc(N)nc4)nc3c2C)COC1 (2.5 µM) was run?
**A.** 0

**Q.** COc1cc2c[n+](C)c3c4cc5c(cc4ccc3c2cc1OC)OCO5 [Nitidine (chloride)] (2 µM) was tested. Which “number of time points” value did it give?
**A.** 0

**Q.** Which “number of time points” value does the source give for N#Cc1ccc2ncnc(NC3CCC(N4CCOCC4)CC3)c2c1 (configuration not stated) (10 µM) here?
**A.** 0

**Q.** Which “number of time points” value does the source give for COc1ccc2c(c1O)OC(C)(C)c1c-2ccc2c1C(=O)N(c1ccc(C(=O)c3ccccc3)cc1)C2=O [Ampkinone] (10 µM) here?
**A.** 0

**Q.** How did the “number of time points” value turn out when CC1=C2C(=O)O[C@@H](c3ccoc3)[C@]2(C)CCC1 [Fraxinellone] (10 µM) was run?
**A.** 0
